According to the supplement of paper PMC10849652:
The list shows a part of the results.

Amino acid sequences for entries named in this document (tags omitted). A change or cut given only in a name is not applied to a line headed by its entry.
UniProt Q8N6N3: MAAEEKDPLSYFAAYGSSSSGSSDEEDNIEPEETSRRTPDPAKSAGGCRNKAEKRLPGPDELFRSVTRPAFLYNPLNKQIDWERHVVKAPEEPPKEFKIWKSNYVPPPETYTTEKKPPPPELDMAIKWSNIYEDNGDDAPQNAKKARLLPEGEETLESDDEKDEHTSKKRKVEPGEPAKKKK
UniProt Q8IYL3: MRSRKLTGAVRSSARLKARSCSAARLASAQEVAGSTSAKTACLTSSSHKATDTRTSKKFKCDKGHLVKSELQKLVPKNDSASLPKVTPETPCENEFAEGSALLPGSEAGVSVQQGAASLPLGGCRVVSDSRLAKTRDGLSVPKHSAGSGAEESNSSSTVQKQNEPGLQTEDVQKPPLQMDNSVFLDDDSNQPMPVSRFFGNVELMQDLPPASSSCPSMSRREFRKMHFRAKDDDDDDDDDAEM
UniProt Q49AR2: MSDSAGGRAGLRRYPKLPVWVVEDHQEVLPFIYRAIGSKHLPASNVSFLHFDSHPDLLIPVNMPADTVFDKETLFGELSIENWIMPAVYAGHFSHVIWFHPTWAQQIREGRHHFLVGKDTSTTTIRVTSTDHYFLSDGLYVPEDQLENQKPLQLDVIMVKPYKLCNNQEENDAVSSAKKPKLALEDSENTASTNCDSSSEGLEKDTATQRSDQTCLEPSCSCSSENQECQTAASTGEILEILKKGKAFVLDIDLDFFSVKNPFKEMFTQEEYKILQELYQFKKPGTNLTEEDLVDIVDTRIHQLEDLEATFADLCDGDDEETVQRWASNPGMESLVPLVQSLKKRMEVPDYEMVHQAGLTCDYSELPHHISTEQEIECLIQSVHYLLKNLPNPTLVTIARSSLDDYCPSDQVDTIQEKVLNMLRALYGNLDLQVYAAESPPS
UniProt P41223: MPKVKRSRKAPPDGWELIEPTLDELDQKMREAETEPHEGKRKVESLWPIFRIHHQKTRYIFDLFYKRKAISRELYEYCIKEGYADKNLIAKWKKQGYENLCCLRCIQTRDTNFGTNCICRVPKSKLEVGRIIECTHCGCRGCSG
UniProt Q8N5I9: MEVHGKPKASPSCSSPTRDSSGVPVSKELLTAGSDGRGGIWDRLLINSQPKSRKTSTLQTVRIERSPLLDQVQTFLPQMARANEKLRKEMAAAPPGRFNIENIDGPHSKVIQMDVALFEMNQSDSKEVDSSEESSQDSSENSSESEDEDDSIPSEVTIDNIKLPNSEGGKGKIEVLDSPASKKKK
UniProt P40121: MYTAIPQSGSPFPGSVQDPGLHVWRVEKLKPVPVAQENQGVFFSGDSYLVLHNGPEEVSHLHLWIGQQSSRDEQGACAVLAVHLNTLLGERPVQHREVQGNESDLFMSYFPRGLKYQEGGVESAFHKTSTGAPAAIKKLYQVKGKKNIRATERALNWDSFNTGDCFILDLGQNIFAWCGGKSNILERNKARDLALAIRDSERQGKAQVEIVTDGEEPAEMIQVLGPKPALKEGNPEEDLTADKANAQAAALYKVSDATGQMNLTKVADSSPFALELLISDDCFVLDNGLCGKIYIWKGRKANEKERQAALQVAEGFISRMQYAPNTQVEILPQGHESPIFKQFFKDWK
UniProt Q96L46: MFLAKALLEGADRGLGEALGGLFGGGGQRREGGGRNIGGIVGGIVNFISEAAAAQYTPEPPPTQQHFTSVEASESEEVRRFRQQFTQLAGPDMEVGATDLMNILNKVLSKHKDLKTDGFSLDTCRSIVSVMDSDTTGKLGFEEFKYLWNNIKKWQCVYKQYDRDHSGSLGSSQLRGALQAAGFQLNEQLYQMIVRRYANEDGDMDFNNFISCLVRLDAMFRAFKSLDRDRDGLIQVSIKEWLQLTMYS
UniProt Q96B23: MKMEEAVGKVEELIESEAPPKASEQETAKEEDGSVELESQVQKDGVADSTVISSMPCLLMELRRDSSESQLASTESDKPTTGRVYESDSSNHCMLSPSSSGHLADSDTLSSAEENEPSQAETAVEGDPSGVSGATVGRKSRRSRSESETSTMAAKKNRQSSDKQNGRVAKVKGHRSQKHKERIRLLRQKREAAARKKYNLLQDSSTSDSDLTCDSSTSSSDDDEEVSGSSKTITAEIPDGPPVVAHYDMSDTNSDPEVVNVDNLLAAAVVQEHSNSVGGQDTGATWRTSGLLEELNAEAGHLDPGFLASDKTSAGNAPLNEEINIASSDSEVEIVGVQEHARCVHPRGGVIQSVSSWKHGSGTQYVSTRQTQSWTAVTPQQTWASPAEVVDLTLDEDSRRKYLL
UniProt Q9BV19: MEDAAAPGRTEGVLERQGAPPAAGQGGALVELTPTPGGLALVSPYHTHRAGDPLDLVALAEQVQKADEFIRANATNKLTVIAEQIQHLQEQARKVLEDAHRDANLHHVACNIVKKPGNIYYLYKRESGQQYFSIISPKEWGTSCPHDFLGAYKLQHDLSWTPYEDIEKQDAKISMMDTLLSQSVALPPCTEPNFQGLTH
UniProt Q9BSJ5: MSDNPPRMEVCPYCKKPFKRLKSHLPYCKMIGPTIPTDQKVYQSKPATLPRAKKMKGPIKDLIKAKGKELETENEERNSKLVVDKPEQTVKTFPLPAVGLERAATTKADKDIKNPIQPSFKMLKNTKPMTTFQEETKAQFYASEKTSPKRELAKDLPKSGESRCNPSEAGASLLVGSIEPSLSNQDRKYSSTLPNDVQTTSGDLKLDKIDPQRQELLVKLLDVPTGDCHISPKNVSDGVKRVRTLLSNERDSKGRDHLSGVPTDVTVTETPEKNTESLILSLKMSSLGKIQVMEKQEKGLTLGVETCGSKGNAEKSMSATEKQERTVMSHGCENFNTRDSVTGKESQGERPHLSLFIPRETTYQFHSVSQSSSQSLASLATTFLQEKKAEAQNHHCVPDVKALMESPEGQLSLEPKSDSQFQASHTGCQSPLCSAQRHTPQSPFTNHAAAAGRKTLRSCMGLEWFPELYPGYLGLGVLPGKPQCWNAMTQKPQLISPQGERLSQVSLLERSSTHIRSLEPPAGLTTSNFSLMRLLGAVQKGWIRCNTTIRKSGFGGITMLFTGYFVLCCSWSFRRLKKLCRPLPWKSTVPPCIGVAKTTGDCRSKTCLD
UniProt Q9UFG5: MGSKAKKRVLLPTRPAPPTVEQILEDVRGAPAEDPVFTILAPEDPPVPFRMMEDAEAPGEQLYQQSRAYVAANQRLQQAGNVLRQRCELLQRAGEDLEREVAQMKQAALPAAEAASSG
UniProt Q9Y6W3: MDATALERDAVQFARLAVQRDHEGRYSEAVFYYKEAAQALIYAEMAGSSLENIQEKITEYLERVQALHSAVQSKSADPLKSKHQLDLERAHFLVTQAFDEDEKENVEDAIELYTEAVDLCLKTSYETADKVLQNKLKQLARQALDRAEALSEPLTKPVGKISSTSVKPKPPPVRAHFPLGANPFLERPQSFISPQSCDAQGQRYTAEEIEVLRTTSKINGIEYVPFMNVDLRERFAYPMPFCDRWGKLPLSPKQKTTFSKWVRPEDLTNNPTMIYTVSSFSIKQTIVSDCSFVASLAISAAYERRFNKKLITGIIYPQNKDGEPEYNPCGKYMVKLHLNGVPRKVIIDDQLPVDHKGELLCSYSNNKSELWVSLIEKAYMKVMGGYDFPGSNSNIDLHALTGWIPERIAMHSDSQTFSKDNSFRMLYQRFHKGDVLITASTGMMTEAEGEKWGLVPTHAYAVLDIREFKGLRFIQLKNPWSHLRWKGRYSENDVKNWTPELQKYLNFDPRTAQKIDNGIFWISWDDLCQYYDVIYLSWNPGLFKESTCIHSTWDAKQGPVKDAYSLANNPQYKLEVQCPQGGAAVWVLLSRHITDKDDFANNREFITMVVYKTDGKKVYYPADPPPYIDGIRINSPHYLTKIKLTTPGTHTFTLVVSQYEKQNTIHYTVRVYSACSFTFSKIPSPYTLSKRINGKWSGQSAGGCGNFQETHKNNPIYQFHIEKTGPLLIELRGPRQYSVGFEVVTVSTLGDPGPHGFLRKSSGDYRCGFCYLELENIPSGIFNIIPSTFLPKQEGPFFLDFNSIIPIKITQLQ
UniProt P27797, whole entry, looked up: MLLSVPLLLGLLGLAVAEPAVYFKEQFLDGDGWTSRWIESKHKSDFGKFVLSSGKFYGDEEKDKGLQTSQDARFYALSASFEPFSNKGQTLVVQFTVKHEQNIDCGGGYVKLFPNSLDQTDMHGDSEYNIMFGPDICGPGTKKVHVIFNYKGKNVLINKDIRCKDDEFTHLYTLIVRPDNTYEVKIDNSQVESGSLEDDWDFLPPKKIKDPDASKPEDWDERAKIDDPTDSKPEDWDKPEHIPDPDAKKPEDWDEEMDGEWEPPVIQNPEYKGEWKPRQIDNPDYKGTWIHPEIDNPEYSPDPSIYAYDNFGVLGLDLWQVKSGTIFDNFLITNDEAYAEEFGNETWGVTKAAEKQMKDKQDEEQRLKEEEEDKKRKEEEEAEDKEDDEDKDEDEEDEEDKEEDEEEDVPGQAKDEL
UniProt P47756, whole entry, looked up: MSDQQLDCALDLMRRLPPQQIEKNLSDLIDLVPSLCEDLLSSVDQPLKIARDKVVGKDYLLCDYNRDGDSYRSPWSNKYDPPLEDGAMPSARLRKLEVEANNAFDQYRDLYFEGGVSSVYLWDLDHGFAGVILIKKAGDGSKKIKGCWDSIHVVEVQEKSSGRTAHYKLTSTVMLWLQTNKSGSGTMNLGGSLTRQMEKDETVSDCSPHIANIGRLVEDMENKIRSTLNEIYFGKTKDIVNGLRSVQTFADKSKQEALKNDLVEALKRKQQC
UniProt Q9Y2V2: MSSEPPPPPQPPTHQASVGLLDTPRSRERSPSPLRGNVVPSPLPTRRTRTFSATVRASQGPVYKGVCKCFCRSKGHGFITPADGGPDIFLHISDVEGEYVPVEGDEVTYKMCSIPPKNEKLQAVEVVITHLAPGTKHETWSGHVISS
UniProt Q8WVQ1: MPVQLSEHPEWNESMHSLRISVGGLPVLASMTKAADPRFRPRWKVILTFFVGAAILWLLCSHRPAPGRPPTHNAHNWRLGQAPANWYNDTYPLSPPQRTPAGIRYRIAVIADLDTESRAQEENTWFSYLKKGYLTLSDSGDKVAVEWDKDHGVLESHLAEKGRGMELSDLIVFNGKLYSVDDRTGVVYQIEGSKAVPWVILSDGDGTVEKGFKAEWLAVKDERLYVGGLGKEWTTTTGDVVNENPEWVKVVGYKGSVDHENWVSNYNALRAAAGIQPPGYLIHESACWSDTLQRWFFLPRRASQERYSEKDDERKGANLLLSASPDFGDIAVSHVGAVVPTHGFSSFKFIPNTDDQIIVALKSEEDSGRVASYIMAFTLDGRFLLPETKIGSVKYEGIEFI
UniProt Q9NZ63: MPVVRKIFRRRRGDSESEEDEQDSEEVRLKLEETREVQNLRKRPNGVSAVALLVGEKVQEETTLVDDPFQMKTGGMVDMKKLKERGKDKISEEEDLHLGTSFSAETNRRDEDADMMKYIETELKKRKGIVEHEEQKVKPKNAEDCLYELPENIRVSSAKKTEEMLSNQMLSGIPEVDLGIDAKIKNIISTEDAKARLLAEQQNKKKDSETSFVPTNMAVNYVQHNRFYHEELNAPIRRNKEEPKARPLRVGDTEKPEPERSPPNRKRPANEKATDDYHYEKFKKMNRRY
UniProt O43852: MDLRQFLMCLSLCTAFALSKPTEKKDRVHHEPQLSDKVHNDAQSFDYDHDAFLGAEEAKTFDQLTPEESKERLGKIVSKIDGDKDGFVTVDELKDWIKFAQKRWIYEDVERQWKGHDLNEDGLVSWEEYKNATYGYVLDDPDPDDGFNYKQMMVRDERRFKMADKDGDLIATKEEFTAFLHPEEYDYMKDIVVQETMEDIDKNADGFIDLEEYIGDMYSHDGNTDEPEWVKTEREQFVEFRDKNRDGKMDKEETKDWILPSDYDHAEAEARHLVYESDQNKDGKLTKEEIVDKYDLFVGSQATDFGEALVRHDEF
UniProt Q9H0W9: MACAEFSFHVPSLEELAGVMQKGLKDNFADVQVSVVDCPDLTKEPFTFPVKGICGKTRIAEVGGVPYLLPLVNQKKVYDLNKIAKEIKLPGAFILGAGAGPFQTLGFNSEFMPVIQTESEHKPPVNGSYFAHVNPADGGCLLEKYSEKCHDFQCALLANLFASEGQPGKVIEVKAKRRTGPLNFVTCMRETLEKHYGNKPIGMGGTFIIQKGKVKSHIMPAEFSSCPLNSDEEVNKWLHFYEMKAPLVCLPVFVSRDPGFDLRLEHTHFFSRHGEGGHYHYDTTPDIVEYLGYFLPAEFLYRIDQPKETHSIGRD
UniProt Q9HB71, whole entry, looked up: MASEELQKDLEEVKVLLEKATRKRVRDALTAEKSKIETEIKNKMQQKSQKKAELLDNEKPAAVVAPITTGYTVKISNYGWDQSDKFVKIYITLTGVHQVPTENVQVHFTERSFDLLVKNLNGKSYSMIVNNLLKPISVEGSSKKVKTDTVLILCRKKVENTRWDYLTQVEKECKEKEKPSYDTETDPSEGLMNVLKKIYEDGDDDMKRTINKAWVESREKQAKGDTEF

Tests used:
Assay in all cases: log2 fold change, soluble protein after heating vs DMSO (PISA); higher = thermal stabilisation; K562 cells, 10 uM, 30 min; active = over 0.2 and 3.5 SD of the protein, either way, in both replicates (recomputed)
[1] = compound: CC[C@@H]1C(=O)N(C)c2cnc(Nc3ccc(C(=O)NC4CCN(C)CC4)cc3OC)nc2N1C1CCCC1
Outline: (§1)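 K562 cells at 2×10^6 cells/mL were treated with 10 μM compound for 30 min. Aliquots were heated for 3 min across 48°C-58°C, pooled, and extracted in PBS with 0.5% NP-40 at 4°C; soluble protein was the supernatant after 21,000xg for 90 min. Soluble protein was quantified by TMTpro 16plex LC-MS/MS with channel sums equalised, and reported as log2 fold change in thermal stability against DMSO controls, with values from duplicates.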

volasertib = compound: CC[C@@H]1C(=O)N(C)c2cnc(Nc3ccc(C(=O)N[C@H]4CC[C@H](N5CCN(CC6CC6)CC5)CC4)cc3OC)nc2N1C(C)C [volasertib]
Outline: as §1

[2] = compound: CC[C@H](C)N1C=C(C2=C(C=C(C=C21)C3=CN=C(C=C3)N4CCNCC4)C(=O)NCC5=C(C=C(NC5=O)C)C)C
Outline: as §1

epoxomicin = compound: CC[C@H](C)[C@@H](C(=O)N[C@@H]([C@@H](C)O)C(=O)N[C@@H](CC(C)C)C(=O)[C@]1(CO1)C)NC(=O)[C@H]([C@@H](C)CC)N(C)C(=O)C [epoxomicin]
Outline: as §1

[3] = compound: CCn1c(C(=O)N(C2CC2)C2CC2)cc2c3c(ncn3C)c(Nc3cc(C)n(C)n3)nc21
Outline: as §1

[4] = compound: CCn1cc(-c2ccnc3[nH]c(-c4cccc(CN(C)C)c4)cc23)c(-c2ccc(NC(=O)N(C)C)cc2)n1
Outline: as §1

[5] = compound: CN(C)CC(=O)Nc1ccc2[nH]c(=O)c3ccccc3c2c1
Outline: as §1

rosiglitazone = compound: CN(CCOC1=CC=C(C=C1)C[C@H]2C(=O)NC(=O)S2)C3=CC=CC=N3 (racemic) [rosiglitazone]
Outline: as §1

[6] = compound: CN1C2=C(C3=C1C(=O)N(N=C3)CC4=CC(=CC=C4)N)SC(=C2)S(=O)C
Outline: as §1

[7] = compound: CN1CCC(CNc2ccc3ncc(-c4cccc(OC(F)(F)F)c4)n3n2)CC1
Outline: as §1

Measured: log2 fold change

C1orf52 (UniProt Q8N6N3)
inactive: [1] 0.006 | volasertib 0.077 | [2] -0.055 | epoxomicin -0.007 | [3] 0.023 | [4] -0.034 | [5] -0.005 | rosiglitazone -0.002 | [6] -0.047 | [7] 0.005

BUB1 (UniProt O43683)
inactive: [1] 0.054 | volasertib 0.081 | [2] -0.123 | epoxomicin 0.021 | [3] -0.071 | [4] 0.042 | [5] -0.031 | rosiglitazone 0.156 | [6] 0.005 | [7] -0.297

C6orf47 (UniProt O95873)
inactive: [1] 0.075 | volasertib 0.03 | [2] -0.023 | epoxomicin -0.038 | [3] -0.006 | [4] -0.009 | [5] -0.053 | rosiglitazone 0.019 | [6] -0.024 | [7] 0.081

C1orf174 (UniProt Q8IYL3)
inactive: [1] 0.216 | volasertib 0.061 | [2] 0.039 | epoxomicin -0.054 | [3] -0.009 | [4] 0.072 | [5] -0.037 | rosiglitazone -0.01 | [6] -0.06 | [7] 0.072

C5orf22 (UniProt Q49AR2)
inactive: [1] -0.005 | volasertib -0.055 | [2] 0.031 | epoxomicin 0.107 | [3] -0.061 | [4] -0.07 | [5] -0.044 | rosiglitazone 0.064 | [6] -0.039 | [7] -0.068

BUD31 (UniProt P41223)
inactive: [1] 0.044 | volasertib -0.057 | [2] 0.087 | epoxomicin 0.059 | [3] -0.028 | [4] -0.056 | [5] 0.013 | rosiglitazone -0.008 | [6] -0.035 | [7] -0.053

C12orf45 (UniProt Q8N5I9)
inactive: [1] 0.024 | volasertib 0.013 | [2] -0.032 | epoxomicin 0.039 | [3] 0.002 | [4] 0.03 | [5] -0.006 | rosiglitazone 0.026 | [6] -0.028 | [7] -0.01

CAPG (UniProt P40121)
inactive: [1] -0.063 | volasertib -0.046 | [2] 0.064 | epoxomicin 0.041 | [3] -0.01 | [4] -0.033 | [5] 0.014 | rosiglitazone 0.04 | [6] -0.038 | [7] 0.036

CAPNS2 (UniProt Q96L46)
inactive: [1] 0.225

C18orf25 isoform 2 (UniProt Q96B23)
inactive: [1] 0.016 | volasertib 0.047 | [2] -0.039 | epoxomicin -0.028 | [3] -0.03 | [4] -0.146 | [5] 0.018 | rosiglitazone 0.025 | [6] -0.027 | [7] 0.152

CARD6 (UniProt Q9BX69)
inactive: [1] 0.103

CAPZA2 (UniProt P47755)
inactive: [1] 0.013 | volasertib -0.046 | [2] -0.006 | epoxomicin -0.002 | [3] -0.012 | [4] -0.035 | [5] 0.016 | rosiglitazone 0.003 | [6] -0.059 | [7] 0.006

C1orf50 (UniProt Q9BV19)
inactive: [1] 0.066 | volasertib 0.005 | [2] -0.071 | epoxomicin 0.245 | [3] -0.066 | [4] -0.141 | [5] 0.062 | rosiglitazone -0.035 | [6] 0.088 | [7] 0.108

C17orf80 (UniProt Q9BSJ5)
inactive: [1] -0.025 | volasertib -0.038 | [2] -0.14 | epoxomicin -0.167 | [3] 0.001 | [4] 0.012 | [5] -0.05 | rosiglitazone 0.01 | [6] 0.012 | [7] -0.046

C19orf25 (UniProt Q9UFG5)
inactive: [1] 0.048 | volasertib -0.002 | [2] -0.019 | epoxomicin 0.219 | [3] 0.066 | [4] -0.015 | [5] 0.322 | rosiglitazone 0.07 | [6] -0.032 | [7] 0.105

BUB3 (UniProt O43684)
inactive: [1] 0.051 | volasertib 0.012 | [2] -0.004 | epoxomicin 0 | [3] -0.014 | [4] -0.014 | [5] -0.03 | rosiglitazone 0.013 | [6] -0.051 | [7] 0

CAPN7 (UniProt Q9Y6W3)
inactive: [1] 0.023 | volasertib 0.104 | [2] 0.078 | epoxomicin 0.012 | [3] -0.043 | [4] -0.049 | [5] 0.009 | rosiglitazone 0.062 | [6] -0.011 | [7] -0.062

CALR (UniProt P27797)
inactive: [1] -0.021 | volasertib -0.07 | [2] 0.018 | epoxomicin 0.019 | [3] 0.06 | [4] 0.009 | [5] -0.049 | rosiglitazone -0.046 | [6] 0.008 | [7] 0.081

CAPZB isoform 2 (UniProt P47756)
inactive: [1] -0.055 | volasertib -0.034 | [2] -0.032 | epoxomicin 0.019 | [3] 0.025 | [4] 0.033 | [5] -0.069 | rosiglitazone -0.015 | [6] -0.057 | [7] -0.05

C20orf27 isoform 2 (UniProt Q9GZN8)
inactive: [1] 0.018 | volasertib 0.016 | [2] 0.028 | epoxomicin 0.024 | [3] -0.01 | [4] -0.169 | [5] 0.098 | rosiglitazone 0.076 | [6] -0.058 | [7] -0.102

CAPRIN1 (UniProt Q14444)
inactive: [1] 0.204 | volasertib 0.261 | [2] -0.005 | epoxomicin -0.203 | [3] 0.037 | [4] 0.109 | [5] -0.096 | rosiglitazone -0.114 | [6] 0.169 | [7] 0.145

CARHSP1 (UniProt Q9Y2V2)
inactive: [1] 0.086 | volasertib 0.197 | [2] 0 | epoxomicin -0.026 | [3] 0.012 | [4] -0.021 | [5] 0.006 | rosiglitazone 0.074 | [6] -0.105 | [7] -0.035

CANT1 (UniProt Q8WVQ1)
inactive: [1] -0.097 | volasertib -0.061 | [2] 0.008 | epoxomicin -0.007 | [3] -0.003 | [4] -0.019 | [5] 0.014 | rosiglitazone 0.054 | [6] -0.024 | [7] -0.011

C9orf78 (UniProt Q9NZ63)
inactive: [1] -0.003 | volasertib 0.06 | [2] -0.041 | epoxomicin 0.057 | [3] 0.025 | [4] 0.024 | [5] -0.026 | rosiglitazone -0.036 | [6] -0.029 | [7] -0.013

CALU isoform 3 (UniProt O43852)
inactive: [1] 0.001 | volasertib 0.05 | [2] -0.058 | epoxomicin -0.031 | [3] 0.027 | [4] -0.023 | [5] -0.051 | rosiglitazone -0.019 | [6] -0.006 | [7] 0.034

CARD8 isoform 5 (UniProt Q9Y2G2)
inactive: [1] 0.122 | volasertib -0.173 | [2] 0.119 | epoxomicin -0.002 | [3] 0.033 | [4] -0.018 | [5] 0.043 | rosiglitazone 0.127 | [6] 0.014 | [7] 0.03

C11orf54 (UniProt Q9H0W9)
inactive: [1] 0.011 | volasertib 0.069 | [2] 0.02 | epoxomicin -0.063 | [3] 0.036 | [4] -0.069 | [5] 0.035 | rosiglitazone 0.007 | [6] -0.002 | [7] -0.102

C11orf98 (UniProt E9PRG8)
inactive: [1] 0.212 | volasertib 0.401 | [2] 0.005 | epoxomicin -0.269 | [3] -0.017 | [4] 0.238 | [5] -0.109 | rosiglitazone -0.078 | [6] 0.284 | [7] 0.302

CACYBP (UniProt Q9HB71)
inactive: [1] -0.044 | volasertib 0.024 | [2] 0.013 | epoxomicin 0.008 | [3] -0.006 | [4] -0.024 | [5] 0.004 | rosiglitazone 0.032 | [6] -0.033 | [7] -0.045

C2CD5 isoform 4 (UniProt Q86YS7)
inactive: [1] -0.08 | volasertib 0.005 | [2] -0.124 | epoxomicin 0.054 | [3] -0.089 | [4] -0.086 | [5] 0.032 | rosiglitazone 0.095 | [6] 0.048 | [7] -0.061

Reprinted from above (2 entries):
CACYBP (UniProt Q9HB71)
inactive: [1] -0.044 | volasertib 0.024 | [2] 0.013 | epoxomicin 0.008 | [3] -0.006 | [4] -0.024 | [5] 0.004 | rosiglitazone 0.032 | [6] -0.033 | [7] -0.045

C2CD5 isoform 4 (UniProt Q86YS7)
inactive: [1] -0.08 | volasertib 0.005 | [2] -0.124 | epoxomicin 0.054 | [3] -0.089 | [4] -0.086 | [5] 0.032 | rosiglitazone 0.095 | [6] 0.048 | [7] -0.061

Next part:

CAPN1 (UniProt P07384)
inactive: [1] 0.043 | volasertib 0.067 | [2] -0.048 | epoxomicin 0.037 | [3] -0.005 | [4] -0.056 | [5] -0.012 | rosiglitazone -0.02 | [6] -0.049 | [7] 0.071
